The values are deposited in ChEMBL (CHEMBL3988442, “University of Dundee, Small-Polar-MMV Screening Library” (2021)).

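Assay of Toxoplasma gondii numbers, read through their beta-galactosidase reporter with a colour substrate. Concentration: 50 µM. The record gives no direction; the compounds picked for IC50 retests had high values, so higher reads as fewer parasites. Of about 18,000 compounds tested this way, about 170 (0.94%) reached 50% or more in at least one test.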

Each number is a percent effect as filed. The record does not define 0% and 100%; most values in the screen are far below 50% and negative numbers occur (in some assays of this library far below -100). This is an unselected part of the compounds tested.

| # | SMILES | effect |
|---|---|---|
| 1 | `Cc1cc(C)n(C2CNC2)n1` | 9.592% |
| 2 | `COC(=O)CCNC(=O)c1c(C)nn(C)c1C` | 3.341% |
| 3 | `Cc1cc(NC(=O)C[S+]([O-])c2cccs2)no1` (configuration not stated) | 7.017% |
| 4 | `CC(C)C(=O)c1cnccc1N` | -3.563% |
| 5 | `CCc1cnc(NC(=O)N2CCC(O)C2)s1` (configuration not stated) | 13.81% |
| 6 | `CO[C@@H]1CCOC[C@H]1NC(=O)c1ccccc1C#N` | -12.34% |
| 7 | `CCC(NC(=O)C1CCOCC1)c1cc(C)ccn1` (configuration not stated) | -5.235% |
| 8 | `Cc1ccc(NC(=O)CCCNC(=O)C2CC2)cc1` | 98.6% |
| 9 | `Cn1cc(C(=O)OCCn2cc(Br)ccc2=O)cn1` | -0.9743% |
| 10 | `CS(=O)(=O)c1cc(Cl)cc(CN)c1` | -21.93% |
| 11 | `CC1CC(=O)N(CCc2cccs2)C1=O` (configuration not stated) | -6.643% |
| 12 | `CC(=O)c1ccc(OCCN(C)C)cc1` | -1.516% |
| 13 | `Cc1cc(NC(=O)CN2CCOc3ccccc32)no1` | 2.063% |
| 14 | `CN(C)C(=O)c1ccc(O)cc1` | -0.7763% |
| 15 | `CC(C)CNC(=O)N1CCCN(S(C)(=O)=O)CC1` | 0.3233% |
| 16 | `N#Cc1ccc(F)c(CN2CCn3ccnc3C2)c1` | -21.97% |
| 17 | `CN(C)C(=O)CN1CCCC1c1ccc(F)cc1` (configuration not stated) | 3.787% |
| 18 | `CNc1ncccc1C(=O)N1CC[C@](C)(O)[C@@H](O)C1` | -3.342% |
| 19 | `NC(=O)Cc1ccccc1NC(=O)N1CCOCC1` | 6.377% |
| 20 | `CN1CCN(C(=O)Cc2ccc3c(c2)CCO3)CC1` | 3.31% |
| 21 | `O=C1NC(=O)[C@@H]2CNC[C@H]12` | 7.173% |
| 22 | `O=S1(=O)CCNCC1` | -10.26% |
| 23 | `N#CC1(NC(=O)CN2CCC(CO)CC2)CCCCC1` | -9.395% |
| 24 | `CC(C)NC(=O)N1CCNC(C)C1` (configuration not stated) | 6.393% |
| 25 | `CCOC(=O)Cn1ccc(C)c(C#N)c1=O` | -3.554% |
| 26 | `NCCc1cc(-c2ccncc2)[nH]n1` | 52.85% |
| 27 | `COCCOc1ccc(CNC(=O)c2ccoc2)cn1` | -6.613% |
| 28 | `CNC(=O)CCNC(=O)c1sc2ccccc2c1C` | -4.683% |
| 29 | `COc1ncccc1NC(=O)Nc1c(C)n[nH]c1C` | -8.622% |
| 30 | `CCC(N)C(=O)N1CCN(C(C)C)CC1` (configuration not stated) | -7.519% |
| 31 | `OC(CNc1ncc(Cl)cc1F)CN1CCOCC1` (configuration not stated) | 1.615% |
| 32 | `CCN(C(=O)c1ccc(=O)n(C)n1)C1CCCC1` | -19.64% |
| 33 | `C[S+]([O-])c1nncn1CCCOc1cccc(Cl)c1` (configuration not stated) | -0.1672% |
| 34 | `CC(N)C(=O)N1CCC(OCc2ccc(F)cc2)CC1` (configuration not stated) | -15.29% |
| 35 | `OC(CN1CCn2ccnc2C1)c1cc(F)ccc1F` (configuration not stated) | 8.126% |
| 36 | `CNC(=O)N1CCC(Oc2cccnc2)C1` (configuration not stated) | 3.391% |
| 37 | `NC(=O)CN1CCC(NC(=O)c2scnc2Cl)CC1` | -2.547% |
| 38 | `O=C(NC1CCCC1)[C@@H]1CSCN1C(=O)C1CC1` | 6.037% |
| 39 | `CCc1ccccc1CNC(=O)NC(C)C(=O)N(C)C` (configuration not stated) | -7.342% |
| 40 | `CNC(=O)[C@@H]1C[C@H](N)CN1S(=O)(=O)N1CCCCC1` | 11.14% |
| 41 | `Cn1cc(NC(=O)CC(C)(C)C)ccc1=O` | -3.018% |
| 42 | `COc1cccc(OC)c1CN` | 22.69% |
| 43 | `CCOC(=O)c1ncc[nH]1` | -15.21% |
| 44 | `CC(=O)c1ccc(NCC(=O)NC(C)C(C)C)cc1` (configuration not stated) | -2.37% |
| 45 | `CCO[C@@H]1COCC[C@H]1NC(=O)c1ncc(F)cc1F` | 2.166% |
| 46 | `Nc1nc2ccc(C(=O)N3CCNCC3)cc2o1` | -25.9% |
| 47 | `COc1cccc2c1OCC(CNC(=O)CN(C)C)C2` (configuration not stated) | -24.96% |
| 48 | `CN(C)C(=O)CCc1ccc2c(c1)OCCO2` | 14.39% |
| 49 | `CCOc1ccc(C(=O)N(C)C(C)c2ccncn2)o1` (configuration not stated) | 16.71% |

For reference, 5 entries once more:

{"smiles": "CC(=O)c1ccc(NCC(=O)NC(C)C(C)C)cc1", "stereo": "configuration not stated", "effect": -2.37}
{"smiles": "COCCOc1ccc(CNC(=O)c2ccoc2)cn1", "effect": -6.613}
{"smiles": "COc1cccc(OC)c1CN", "effect": 22.69}
{"smiles": "CCc1cnc(NC(=O)N2CCC(O)C2)s1", "stereo": "configuration not stated", "effect": 13.81}
{"smiles": "O=C(NC1CCCC1)[C@@H]1CSCN1C(=O)C1CC1", "effect": 6.037}